Measurements reported in PubChem BioAssay AID1259315 (Drosophila RNAi Screening Center, 2017)

Aim: 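Genes that modify how toxic zinc chloride is to fly cells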 (primary screen)
System: Drosophila S2R+ cells
Knock-down reagent: long dsRNA against Drosophila genes
Timing: 5 days (4 days knock-down, then 1 day with zinc)
Treatment: zinc chloride added to 15 mM final for 1 day
Read-out: 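Luminescent measure of total cellular ATP as a survival proxy, read after 4 days of knock-down plus 1 day in 15 mM zinc chloride; z-score averaged across two replicate plates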
Direction: mean ATP z-score: higher = more ATP, more cells surviving zinc
Active means: 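Hit when the mean ATP z-score exceeds 1.5 or falls below -1.5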
This is a random part of 418 reagents tested. In the full data, 17 (4.1%) got an active call. 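z-scores average two replicate plates; all hits raised ATP and none lowered it.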 The record does not give: the amount of reagent.

| predicted target | DRSC id | mean ATP z-score | call |
| --- | --- | --- | --- |
| Vps33B (GeneID 43077) | DRSC15722 | -0.218 | inactive |
| Vps33B (GeneID 43077) | DRSC35357 | -0.167 | inactive |
| Vha26 (GeneID 40679) | DRSC25503 | 0.532 | inactive |
| Vha26 (GeneID 40679) | DRSC31688 | 0.176 | inactive |
| Vha26 (GeneID 40679) | DRSC38973 | 0.552 | inactive |
| Vha100-1 (GeneID 43442) | DRSC26617 | 4.16 | active |
| Vha100-1 (GeneID 43442) | DRSC38989 | 0.0614 | inactive |
| Vha100-1 (GeneID 43442) | DRSC39862 | 0.0972 | inactive |
| Mpcp2 (GeneID 39587) | DRSC11226 | -0.00414 | inactive |
| Mpcp2 (GeneID 39587) | DRSC41005 | -0.119 | inactive |
| Hacl (GeneID 37285) | DRSC06061 | -0.225 | inactive |
| Hacl (GeneID 37285) | DRSC37107 | -0.186 | inactive |
| Ppt2 (GeneID 34564) | DRSC02786 | -0.0978 | inactive |
| Ppt2 (GeneID 34564) | DRSC26027 | -0.353 | inactive |
| Ppt2 (GeneID 34564) | DRSC41066 | -0.263 | inactive |
| CG8646 (GeneID 36394) | DRSC07230 | -0.371 | inactive |
| CG33128 (GeneID 326263) | DRSC00294 | -0.0851 | inactive |
| CG33128 (GeneID 326263) | DRSC28698 | -0.316 | inactive |
| Ctr1A (GeneID 31601) | DRSC18336 | 0.0335 | inactive |
| Ctr1A (GeneID 31601) | DRSC40310 | -0.113 | inactive |
| Ctr1A (GeneID 31601) | DRSC40902 | -0.041 | inactive |
| mnd (GeneID 39625) | DRSC11370 | -0.234 | inactive |
| mnd (GeneID 39625) | DRSC39608 | -0.409 | inactive |
| Pmvk (GeneID 35255) | DRSC02032 | -0.311 | inactive |
| Pmvk (GeneID 35255) | DRSC36851 | -0.253 | inactive |
| Daao1 (GeneID 36128) | DRSC06131 | -0.29 | inactive |
| Mfe2 (GeneID 32582) | DRSC19869 | -0.273 | inactive |
| or (GeneID 43943) | DRSC04329 | 0.195 | inactive |
| or (GeneID 43943) | DRSC29241 | -0.285 | inactive |
| or (GeneID 43943) | DRSC37306 | -0.207 | inactive |
| Sap-r (GeneID 43662) | DRSC21916 | -0.324 | inactive |
| Sap-r (GeneID 43662) | DRSC27246 | -0.383 | inactive |
| Pex3 (GeneID 39652) | DRSC10731 | -0.321 | inactive |
| Pex3 (GeneID 39652) | DRSC40003 | -0.392 | inactive |
| CG15117 (GeneID 37197) | DRSC06539 | -0.444 | inactive |
| CG15117 (GeneID 37197) | DRSC25471 | -0.319 | inactive |
| CG15117 (GeneID 37197) | DRSC34105 | -0.032 | inactive |
| LManII (GeneID 34437) | DRSC01986 | -0.201 | inactive |
| Pex10 (GeneID 38182) | DRSC22021 | -0.205 | inactive |
| Pex10 (GeneID 38182) | DRSC38320 | -0.403 | inactive |
| Rpt6R (GeneID 43635) | DRSC15431 | -0.036 | inactive |
| Rpt6R (GeneID 43635) | DRSC41241 | -0.286 | inactive |
| CG17544 (GeneID 35213) | DRSC02624 | -0.195 | inactive |
| CG17544 (GeneID 35213) | DRSC25562 | -0.342 | inactive |
| CG10474 (GeneID 37211) | DRSC05993 | -0.0269 | inactive |

7 of these entries in another layout.
{"predicted target":"Pex3 (GeneID 39652)","DRSC id":"DRSC10731","mean ATP z-score":-0.321,"call":"inactive"}
{"predicted target":"Pex3 (GeneID 39652)","DRSC id":"DRSC40003","mean ATP z-score":-0.392,"call":"inactive"}
{"predicted target":"CG15117 (GeneID 37197)","DRSC id":"DRSC06539","mean ATP z-score":-0.444,"call":"inactive"}
{"predicted target":"CG15117 (GeneID 37197)","DRSC id":"DRSC25471","mean ATP z-score":-0.319,"call":"inactive"}
{"predicted target":"CG15117 (GeneID 37197)","DRSC id":"DRSC34105","mean ATP z-score":-0.032,"call":"inactive"}
{"predicted target":"LManII (GeneID 34437)","DRSC id":"DRSC01986","mean ATP z-score":-0.201,"call":"inactive"}
{"predicted target":"Pex10 (GeneID 38182)","DRSC id":"DRSC22021","mean ATP z-score":-0.205,"call":"inactive"}
